Laboratory results taken from doi:10.1101/2023.12.15.571360.
Results are given in words; binding and its absence hold for the method and conditions named. Binding seen in cells or lysates may run through a third protein. Some results given as binding are weak or reduced against the parent protein; the word gives no strength.

The chains behind the UniProt entries cited, without tags or fusion partners. Where a name states a change or a piece, a line headed by the entry shows the natural chain unless it says otherwise.
UniProt P61586: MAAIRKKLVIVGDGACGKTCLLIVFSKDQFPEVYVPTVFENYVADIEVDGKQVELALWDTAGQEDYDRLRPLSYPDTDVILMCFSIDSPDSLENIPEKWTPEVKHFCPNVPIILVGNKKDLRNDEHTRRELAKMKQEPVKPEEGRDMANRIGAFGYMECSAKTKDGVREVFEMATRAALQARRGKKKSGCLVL

Molecular target: GST-RhoA-G17A (UniProt P61586)
Assay: pull-down

B1: ARHGEF2 (protein, UniProt Q60875 1-985)
chain: MSRIESLTRARIDRSKEQATKTREKEKMKEAKDARYTNGHLFTTISVSGMTMCYACNKSITAKEALICPTCNVTIHNRCKDTLANCTKVKQKQQKAALLRNNTALQSVSLRSKTTTRERPTSAIYPSDSFRQSLLGSRRGLSSLSLAKSVSTTNIAGHFNDESPLGLRQILSQSTDSLNMRNRTLSVESLIDEGVEVFYNELMSDFEMDEKDFEADSWSLAVDSSFLQQHKKEVMKKQDVIYELIQTELHHVRTLKIMTRLFRTGMLEELQMEPEVVQGLFPCVDELSDIHTRFLNQLLERRRQALCPGSTRNFVIHRLGDLLISQFSGSNAEQMRKTYSEFCSRHTKALKLYKELYARDKRFQQFIRKMTRSAVLKRHGVQECILLVTQRITKYPVLINRILQNSHGVEEEYQDLASALGLVKELLSNVDQDVHELEKEARLQEIYNRMDPRAQTPVPGKGPFGRDELLRRKLIHEGCLLWKTATGRFKDVLLLLMTDVLVFLQEKDQKYIFTSLDKPSVVSLQNLIVRDIANQAKGMFLISSGPPEMYEVHAASRDDRTTWIRVIQQSVRLCPSREDFPLIETEDKAYLRRIKTKLQQKNQALVELLQKNVELFAEMVHFQALKAGFVGMPPPALPRGLFRLESFESLRGERLLKDALREVEGLKDLLLGPCVDLPMTSREPALPLDSDSGSCPGVTANGEARTFNGSIELCRADSDSSQKDRNGNQLRSPQEEVLQPLINLYGLLHGLQAVVVQQERLMEALFPEGPERWEKLSRANSRDGEAGRAAVASVTPEKQATELALLQRQHTLLQEELRRCQRLGEERATEAGSLEARLRESEQARALLEREAEEIRRQLAALGQNEPLPAEAPWARRPLDPRRRSLPAGDALYLSFNPPQPSRGHDRLDLPVTVRSLHRPFDDREAQELGSPEDRLQDSSDPDTGSEEEVSSRLSPPHSPRDFTRMQDIPEETESRDGEPTASES
modifications: phosphorylation at T103 increased by co-expressed CaMKII-CA
- binding: binds
